Reference: paper PMC13187458
These are yes or no findings as the source states them, for the method shown. Binding seen in cells or lysates may run through a third protein. Some results given as binding are weak or reduced against the parent protein; the word gives no strength. Tags and fused reporters may be left off the sequences shown.

Chains of the proteins cited; added tags and fusions are not shown.
UniProt Q13263: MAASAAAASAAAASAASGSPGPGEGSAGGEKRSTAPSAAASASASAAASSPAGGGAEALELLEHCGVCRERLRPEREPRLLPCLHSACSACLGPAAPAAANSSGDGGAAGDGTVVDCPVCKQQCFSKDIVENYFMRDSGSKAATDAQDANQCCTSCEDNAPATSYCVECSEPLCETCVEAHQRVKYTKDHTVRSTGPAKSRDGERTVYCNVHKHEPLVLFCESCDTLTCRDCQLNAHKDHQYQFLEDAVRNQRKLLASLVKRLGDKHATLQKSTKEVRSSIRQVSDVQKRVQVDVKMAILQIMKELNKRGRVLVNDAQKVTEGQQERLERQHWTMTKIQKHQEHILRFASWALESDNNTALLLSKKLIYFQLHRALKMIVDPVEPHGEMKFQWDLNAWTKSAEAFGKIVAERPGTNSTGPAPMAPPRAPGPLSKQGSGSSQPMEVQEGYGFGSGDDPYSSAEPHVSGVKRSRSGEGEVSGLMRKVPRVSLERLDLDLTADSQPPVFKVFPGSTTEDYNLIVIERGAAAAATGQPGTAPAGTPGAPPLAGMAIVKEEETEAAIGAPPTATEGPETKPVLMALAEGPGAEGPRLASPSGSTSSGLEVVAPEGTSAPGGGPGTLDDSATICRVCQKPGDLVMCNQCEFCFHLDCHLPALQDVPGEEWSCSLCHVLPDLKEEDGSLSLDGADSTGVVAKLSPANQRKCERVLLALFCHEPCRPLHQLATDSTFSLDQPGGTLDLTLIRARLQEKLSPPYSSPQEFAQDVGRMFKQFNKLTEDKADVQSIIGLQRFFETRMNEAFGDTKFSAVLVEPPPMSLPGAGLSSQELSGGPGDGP

Tests used:
[1] = molecular target: T1, Flag-tagged COUP-TF2 (UniProt P24468); test: co-IP; lysates of WI38-VA13/2RA cells (2 × 10^7) transiently expressing Flag-tagged COUP-TF2 or TR4; NETN lysis buffer; anti-Flag agarose beads, 4 °C, 30 min; Western blot for endogenous TRIM28; also done after Benzonase treatment of the lysates
T1 sequence: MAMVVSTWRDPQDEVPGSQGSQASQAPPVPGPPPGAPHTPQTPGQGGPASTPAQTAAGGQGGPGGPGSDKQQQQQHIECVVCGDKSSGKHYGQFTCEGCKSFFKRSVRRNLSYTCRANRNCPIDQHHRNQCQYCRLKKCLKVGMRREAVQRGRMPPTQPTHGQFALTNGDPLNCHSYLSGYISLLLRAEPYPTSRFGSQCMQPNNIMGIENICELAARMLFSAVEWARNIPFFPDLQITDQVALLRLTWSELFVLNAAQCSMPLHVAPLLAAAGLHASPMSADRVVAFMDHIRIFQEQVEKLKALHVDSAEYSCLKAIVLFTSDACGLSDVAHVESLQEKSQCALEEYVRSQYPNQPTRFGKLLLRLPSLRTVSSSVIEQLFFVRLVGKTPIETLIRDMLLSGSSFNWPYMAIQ

[2] = molecular target: T2, Flag-tagged TR4 (UniProt P49116); test: as above
T2 sequence: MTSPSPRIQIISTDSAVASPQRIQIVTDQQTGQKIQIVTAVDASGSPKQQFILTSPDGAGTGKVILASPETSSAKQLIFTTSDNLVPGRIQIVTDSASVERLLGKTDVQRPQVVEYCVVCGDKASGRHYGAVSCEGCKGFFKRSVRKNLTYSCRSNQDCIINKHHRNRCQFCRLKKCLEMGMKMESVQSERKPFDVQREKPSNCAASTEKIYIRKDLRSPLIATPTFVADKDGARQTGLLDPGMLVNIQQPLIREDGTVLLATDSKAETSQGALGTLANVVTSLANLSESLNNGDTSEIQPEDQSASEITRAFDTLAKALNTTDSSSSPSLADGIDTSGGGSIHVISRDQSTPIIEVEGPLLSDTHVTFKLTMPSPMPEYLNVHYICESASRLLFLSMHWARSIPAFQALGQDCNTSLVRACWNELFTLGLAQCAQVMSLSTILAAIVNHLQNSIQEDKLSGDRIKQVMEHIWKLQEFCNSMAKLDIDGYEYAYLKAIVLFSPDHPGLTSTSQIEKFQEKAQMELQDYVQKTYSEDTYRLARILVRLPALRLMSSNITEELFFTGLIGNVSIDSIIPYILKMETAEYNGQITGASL

How did the binding [1] turn out when “TRIM28 (Tripartite motif-containing 28), endogenous (from UniProt Q13263 1-835)” was run?
Its binding is “binds”.

What about the binding [2] of the same substance?
The binding was “binds”.
